In US9221836B2, “Heterocyclic compound and use thereof” (TAKEDA PHARMACEUTICAL COMPANY LIMITED, priority 2008, dated 2015):
Counter-ions that a name gives are not always drawn. At least one compound was matched to its structure with a doubt left.

Target: T1, plasma renin activity (PRA) (Macaca fascicularis, UniProt Q6DLS0)
T1 sequence (Q6DLS0 67-406): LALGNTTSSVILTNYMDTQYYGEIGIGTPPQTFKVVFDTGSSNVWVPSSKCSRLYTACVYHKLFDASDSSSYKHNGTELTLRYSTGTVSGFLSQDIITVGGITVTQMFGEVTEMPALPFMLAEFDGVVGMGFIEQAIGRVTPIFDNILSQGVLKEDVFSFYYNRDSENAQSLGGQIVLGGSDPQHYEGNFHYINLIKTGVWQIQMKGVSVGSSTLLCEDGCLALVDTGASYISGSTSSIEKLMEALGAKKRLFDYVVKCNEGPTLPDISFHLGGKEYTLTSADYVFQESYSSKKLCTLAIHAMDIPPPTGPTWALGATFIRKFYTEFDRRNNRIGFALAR
Conditions: male Macaca fascicularis; 1 mg/kg orally in 0.5% methylcellulose; plasma 4 hr after administration; amended with vehicle group

CCCN(C(=O)c1nc2ccccc2n1CCCCOC)[C@@H]1CNC[C@H](C(=O)N2CCOCC2)C1 [Example 255, 1-(4-methoxybutyl)-N-[(3S,5R)-5-(morpholin-4-ylcarbonyl)piperidin-3-yl]-N-propyl-1H-benzimidazole-2-carboxamide dihydrochloride]
Macaca fascicularis plasma renin activity: PPA inhibitory activity (%, n = 3-7): 84%
